Data as given in PubChem BioAssay AID1259308 (NCATS, 2017).
The deposit covers about 59,000 reagents; shown is an unselected part. About 1,510 of them (2.6%) count as active. 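Calls use total luciferase alone and ignore viability, so some active siRNAs may act by altering cell number.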 The numbers tell different reagents against one gene apart. Not all columns of the deposit are shown.

- Test: 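Candidate targets for better recombinant protein yield in mammalian cells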 (primary screen)
- Cells: human HEK293 embryonic kidney cells stably expressing firefly luciferase (HEK-CMV-Luc2-Hygro)
- Knock-down reagent: single siRNA against human genes, 0.8 pmol siRNA per well
- Duration: 72 h
- Detection: 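Reporter luminescence and viable-cell signal on separate replicate plates, given as percent of non-targeting control and median/MAD z-scores, plus per-cell luciferase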
- Scale: total luciferase, z-score and total luciferase, % of control: higher = more reporter protein produced
- Rule for the call: 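An siRNA counts as active if its total luciferase robust z-score exceeds 3; genes with two or more such siRNAs out of three were retested with fresh siRNAs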
- Calls: active = raised luciferase; inactive = no rise

The first 2 records, ahead of the listing:
ZG16B #1 → total luciferase, z-score: 2.83; total luciferase, % of control: 138; Call: inactive
ZG16B #2 → total luciferase, z-score: -0.749; total luciferase, % of control: 67; Call: inactive

Main list, from the start:
ZG16B #1 → total luciferase, z-score: 2.83; total luciferase, % of control: 138; Call: inactive
ZG16B #2 → total luciferase, z-score: -0.749; total luciferase, % of control: 67; Call: inactive
ZG16B #3 → total luciferase, z-score: 0.024; total luciferase, % of control: 82.4; Call: inactive
BCAT2 #1 → total luciferase, z-score: 0.0587; total luciferase, % of control: 83.1; Call: inactive
BCAT2 #2 → total luciferase, z-score: -0.798; total luciferase, % of control: 66; Call: inactive
BCAT2 #3 → total luciferase, z-score: 1.39; total luciferase, % of control: 109; Call: inactive
CRK #1 → total luciferase, z-score: -0.733; total luciferase, % of control: 67.3; Call: inactive
CRK #2 → total luciferase, z-score: 0.0693; total luciferase, % of control: 83.3; Call: inactive
CRK #3 → total luciferase, z-score: 0.585; total luciferase, % of control: 93.5; Call: inactive
CDC27P5 #1 → total luciferase, z-score: 0.48; total luciferase, % of control: 91.4; Call: inactive
CDC27P5 #2 → total luciferase, z-score: 0.846; total luciferase, % of control: 98.7; Call: inactive
CDC27P5 #3 → total luciferase, z-score: -1.21; total luciferase, % of control: 57.8; Call: inactive
PELI2 #1 → total luciferase, z-score: -1.72; total luciferase, % of control: 47.8; Call: inactive
PELI2 #2 → total luciferase, z-score: 0.457; total luciferase, % of control: 91; Call: inactive
PELI2 #3 → total luciferase, z-score: 0.0649; total luciferase, % of control: 83.2; Call: inactive
BCLAF3 #1 → total luciferase, z-score: 1.83; total luciferase, % of control: 118; Call: inactive
BCLAF3 #2 → total luciferase, z-score: 0.208; total luciferase, % of control: 86; Call: inactive
BCLAF3 #3 → total luciferase, z-score: -0.713; total luciferase, % of control: 67.7; Call: inactive
HLA-DQA1 #1 → total luciferase, z-score: 0.205; total luciferase, % of control: 86; Call: inactive
HLA-DQA1 #2 → total luciferase, z-score: 1.92; total luciferase, % of control: 120; Call: inactive
HLA-DQA1 #3 → total luciferase, z-score: 1.44; total luciferase, % of control: 111; Call: inactive
HLA-DQA1 #4 → total luciferase, z-score: 0.0137; total luciferase, % of control: 82.2; Call: inactive
HLA-DQA1 #5 → total luciferase, z-score: -0.418; total luciferase, % of control: 73.6; Call: inactive
HLA-DQA1 #6 → total luciferase, z-score: -0.0471; total luciferase, % of control: 81; Call: inactive
IL36B #1 → total luciferase, z-score: -0.441; total luciferase, % of control: 73.1; Call: inactive
IL36B #2 → total luciferase, z-score: -0.24; total luciferase, % of control: 77.1; Call: inactive
IL36B #3 → total luciferase, z-score: 0.373; total luciferase, % of control: 89.3; Call: inactive
DHX34 #1 → total luciferase, z-score: 2.45; total luciferase, % of control: 131; Call: inactive
DHX34 #2 → total luciferase, z-score: -0.587; total luciferase, % of control: 70.2; Call: inactive
DHX34 #3 → total luciferase, z-score: -1.02; total luciferase, % of control: 61.6; Call: inactive
ATG7 #1 → total luciferase, z-score: 0.935; total luciferase, % of control: 100; Call: inactive
ATG7 #2 → total luciferase, z-score: -0.601; total luciferase, % of control: 69.9; Call: inactive
ATG7 #3 → total luciferase, z-score: 0.366; total luciferase, % of control: 89.2; Call: inactive
IL9 #1 → total luciferase, z-score: -0.0966; total luciferase, % of control: 80; Call: inactive
IL9 #2 → total luciferase, z-score: -3; total luciferase, % of control: 22.2; Call: inactive
IL9 #3 → total luciferase, z-score: -1.51; total luciferase, % of control: 51.9; Call: inactive
SLC48A1 #1 → total luciferase, z-score: -0.453; total luciferase, % of control: 72.9; Call: inactive
SLC48A1 #2 → total luciferase, z-score: -0.0282; total luciferase, % of control: 81.3; Call: inactive
SLC48A1 #3 → total luciferase, z-score: -0.158; total luciferase, % of control: 78.7; Call: inactive
SFXN5 #1 → total luciferase, z-score: 1.12; total luciferase, % of control: 104; Call: inactive
SFXN5 #2 → total luciferase, z-score: -0.783; total luciferase, % of control: 66.3; Call: inactive
SFXN5 #3 → total luciferase, z-score: -0.422; total luciferase, % of control: 73.5; Call: inactive
